Experimental data from ChEMBL document CHEMBL1949514, “Design, Synthesis, and Antitumor Activity of 4-Halocolchicines and Their Pro-drugs Activated by Cathepsin B” (ACS Med Chem Lett, 2011).

Columns and labels:
HT-29 = assay: Cytotoxicity against human HT-29 cells after 96 hrs using tetracolor one; type: functional, cell-based; details: HT-29, 96 h
A549 = assay: Cytotoxicity against human A549 cells after 96 hrs using tetracolor one; type: functional, cell-based; details: A549, 96 h
HUVEC [1] = assay: Cytotoxicity against human HUVEC cells after 96 hrs using tetracolor one; type: ADME, cell-based
HUVEC [2] = assay: Selectivity ratio of IC50 for human HUVEC cells to IC50 for human HT-29 cells

COc1cc2c(c(OC)c1OC)-c1ccc(OC)c(=O)cc1[C@@H](N)CC2 [DEACETYLCOLCHICINE]
IC50 (HT-29): 25 nM
IC50 (A549): 36 nM
IC50 (HUVEC [1]): 34 nM
Ratio IC50 (HUVEC [2]): 1.4
